PubChem BioAssay AID1259308 – NCATS, 2017

Aim: 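Genes whose loss raises luciferase production in HEK293 cells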 (primary screen)
System: human HEK293 embryonic kidney cells stably expressing firefly luciferase (HEK-CMV-Luc2-Hygro)
Reagents: single siRNA against human genes, 0.8 pmol siRNA per well
Duration: 72 h
Measurement: 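Reporter luminescence and viable-cell signal on separate replicate plates, given as percent of non-targeting control and median/MAD z-scores, plus per-cell luciferase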
Reading the numbers: total luciferase, z-score: higher = more reporter protein produced
Rule for the call: 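An siRNA counts as active if its total luciferase robust z-score exceeds 3; genes with two or more such siRNAs out of three were retested with fresh siRNAs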
Meaning of the calls: active = raised luciferase; inactive = no rise
The deposit covers about 59,000 reagents; shown is a random part of them. Over the whole deposit, about 1,510 (2.6%) are marked active. 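Calls use total luciferase alone and ignore viability, so some active siRNAs may act by altering cell number.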 A number with no mark means an inactive call. Further read-outs or replicates are left out here.

total luciferase, z-score, by target gene and reagent
MRGPRF: SID160730783 0.496; SID160761398 4.61 (active); SID160761400 0.932
PRR23C: SID160766112 0.387; SID160766113 -0.141; SID160766114 -0.56
CIAO3: SID160747782 0.0257; SID160747783 -1.19; SID160747784 0.625
IP6K1: SID160723136 -1.63; SID160723137 2.31; SID160723138 0.548
HFE: SID160727835 -0.203; SID160727837 1.76; SID160727838 -1.92
SPIDR: SID160736437 0.0252; SID160736438 -1.18; SID160736439 0.719
AFG2A: SID160760203 -0.228; SID160760204 -1.01; SID160760205 -0.575
ZNF836: SID160759957 0.207; SID160759958 0.69; SID160759959 -0.324
JDP2: SID160756033 0.218; SID160756034 -0.00867; SID160756035 -0.567
CHCHD2P6: SID160769507 1.85; SID160769508 -1.12; SID160769509 2.07
CCNYL1: SID160759067 0.48; SID160759068 5.16 (active); SID160759069 0.72
CREM: SID160727818 0.0995; SID160727819 -3.19; SID160727820 0.473
ALDH3A1: SID160716292 0.233; SID160716302 0.424; SID160716312 1.89
TRAF3IP2-AS1: SID160733838 2.64; SID160768981 3.1 (active); SID160768982 0.403
RPL31P50: SID160764539 -2.2; SID160764540 -0.352; SID160764541 -0.372
PADI4: SID160736592 -0.434; SID160736594 -0.343; SID160736595 0.322
DAAM1: SID160734858 0.0983; SID160734868 -0.963; SID160734879 -1.44
DRC5: SID160761072 -0.191; SID160761074 -2.27; SID160761075 0.52
PPID: SID160714738 0.121; SID160714739 -1.7; SID160714740 -0.444
PABPN1L: SID160725271 -1.21; SID160733259 2.14; SID160766568 -1.52
FBXO45: SID160730754 -0.128; SID160760915 0.483; SID160760916 -1.06
HTR3B: SID160721651 0.51; SID160721652 -0.671; SID160721653 1.59
ARVCF: SID160720581 -0.451; SID160720591 -0.187; SID160720600 0.917
ST18: SID160722862 -0.138; SID160722863 -0.971; SID160722864 -0.415
STING1: SID160733088 -2.58; SID160764350 0.847; SID160764351 -0.329

6 entries already listed, ordered by “total luciferase, z-score”, low to high:
Target gene	PubChem SID	total luciferase, z-score
DRC5	SID160761074	-2.27
PPID	SID160714739	-1.7
PPID	SID160714740	-0.444
DRC5	SID160761072	-0.191
PPID	SID160714738	0.121
DRC5	SID160761075	0.52
